Results reported in PubChem BioAssay AID1487 (National Center for Advancing Translational Sciences (NCATS), 2009).
The other results are listed elsewhere or left out. Shown are side measurements of this screen, not its main read-out; they come without a call. The list favours compounds with an active or inconclusive main result. Words in brackets tell the shape of the fitted curve; partial curves, single points and poor fits give uncertain potencies.

Assay: qHTS Assay for Modulators of Lamin A Splicing
Details: HeLa LMNA splicing GFP/RFP minigene ratio, 48 h
How it was run: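 S3 HeLa stable clones carrying a lamin A-EGFP splicing minigene plus DsRed2 were seeded at 600 cells/well in Opti-MEM with 2% FBS, pin-dosed and incubated 48 h at 37°C. Acumen cytometry (488 nm) gave the GFP/RFP total-intensity ratio.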

[1] = measured here: RFP viability control channel
[2] = measured here: GFP splicing reporter channel

With CC(C)(C)c1cc(CN2CCN(CCO)CC2)cc(C(C)(C)C)c1O the AC50 [1] was 11.2 µM [rising, partial curve].
With O=S(=O)(NCC(c1ccco1)S(=O)(=O)c1cccs1)c1ccc(Cl)cc1 (stereo not given) the AC50 [1] was 8.91 µM [rising, partial curve].
For CC(=O)c1cccc(NS(=O)(=O)c2cc(-c3cnc(C4CC4)o3)ccc2C)c1, the AC50 [1] was 2.51 µM [rising, full curve, poor fit].
In the case of COc1cccc(C(=O)Nc2nc(-c3ccc4c(c3)OCO4)cs2)c1, the AC50 [1] is reported as 12.6 µM [rising, partial curve].
With N=C1/C(=C/c2cccn2CCOc2ccccc2)C(=O)N=C2SC=C(c3ccccc3)N12 the AC50 [1] was 17.8 µM [rising, single point].
In the case of COc1ccc(CNc2nc(-c3ccccc3CN(C)C)nc3ccccc23)c(OC)c1, the AC50 [2] is reported as 35.5 µM [rising, single point] and the AC50 [1] is reported as 25.1 µM [rising, single point].
For CN(C)S(=O)(=O)N1CCN(c2ccc([N+](=O)[O-])c(N3CCOCC3)c2)CC1, the AC50 [2] was 35.5 µM [falling, partial curve, poor fit] and the AC50 [1] was 35.5 µM [falling, partial curve, poor fit].
In the case of CN(Cc1nccn1C)C(=O)CCc1nnc(CCC2CCCCC2)o1, the AC50 [2] is reported as 0.0562 µM [falling, full curve, poor fit] and the AC50 [1] is reported as 0.00447 µM [falling, full curve, poor fit].
For Cc1cc(C(=O)CN2C(=O)CN(C)C2=O)c(C)n1-c1cccc(S(=O)(=O)N2CCOCC2)c1, the AC50 [2] was 20 µM [falling, partial curve, poor fit].
In the case of CC[n+]1c(/C=C/Nc2ccccc2)oc2ccccc21, the AC50 [2] is reported as 17.8 µM [rising, single point].
For O=C(Nc1nc(COc2ccccc2)cs1)C1CCC1, the AC50 [2] was 20 µM [rising, single point] and the AC50 [1] was 22.4 µM [rising, partial curve].
For CCCCN(CC)CCNC(=O)C1CCCN(c2ncnc3onc(C)c23)C1 (stereo not given), the AC50 [2] was 0.0316 µM [falling, full curve, poor fit].
In the case of CCC(=O)N1c2ccccc2CC1C(=O)NCc1ccc(N(C)C)cc1 (stereo not given), the AC50 [2] is reported as 1.78 µM [rising, partial curve].
In the case of O=C(N/N=C/c1cc([N+](=O)[O-])ccc1Cl)c1cnccn1, the AC50 [1] is reported as 6.31 µM [falling, single point].
With FC(F)(F)c1cccc(-c2nn[nH]n2)c1 the AC50 [2] was 0.0141 µM [rising, full curve, poor fit].
With CCc1ccc2c(COn3nnc4ccc(S(=O)(=O)N(C)C)cc43)cc(=O)oc2c1 the AC50 [2] was 35.5 µM [rising, single point].
